According to patent US5847074A (Kyowa Hakko Kogyo Co., Ltd., priority 1993, dated 1998):

Assay: general procedure: Fmoc solid-phase peptide synthesis; Rink Amide-Resin or Rink Amide-MBHA-Resin; support resin with 4-(2,4-dimethoxyphenyl-Fmoc-aminomethyl)-phenoxy group; PyBOP/HOBt/NMM
Settings: whole synthesis, scale 60 mg resin

Substance: CH3 (CH2)6 COCysLeuTyrArgLysMetArgLeuArgTyrProVal
- crude mass: 62.4 mg

Substance: HCysLeuTyrArgLysMetArgLeuArgTyrProValCysNH2
- crude mass: 52.6 mg
- isolated mass: 16.5 mg
